Results published in patent US20110020437A1 (APIM THERAPEUTICS, published 2011).
No constants are given. Whether binding was seen depends on the method and setting. For part of these data: In cells and extracts the contact can be indirect. Some entries that bind do so weakly or less than the wild type. For part of these data: Tags and fused reporters may be left off the sequences shown. Values belong to the molecule of their own block, whether it stands above or below them.

Protein sequences, listed by entry. Tags and fused reporters are not part of them.
UniProt P12004: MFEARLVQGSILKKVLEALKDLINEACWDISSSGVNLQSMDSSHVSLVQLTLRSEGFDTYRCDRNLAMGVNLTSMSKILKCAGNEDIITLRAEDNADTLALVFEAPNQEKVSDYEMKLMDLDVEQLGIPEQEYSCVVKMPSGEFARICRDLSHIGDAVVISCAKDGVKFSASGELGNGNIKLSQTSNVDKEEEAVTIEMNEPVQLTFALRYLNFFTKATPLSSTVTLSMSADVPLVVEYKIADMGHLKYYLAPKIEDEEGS

Key:
hABH2 (human) [1] = biological target: T1, hABH2 (human) (UniProt Q6NS38); assay: co-IP with anti-EYFP magnetic beads from cells stably expressing EYFP-PCNA, anti-hABH2 western blot
T1 sequence (looked up): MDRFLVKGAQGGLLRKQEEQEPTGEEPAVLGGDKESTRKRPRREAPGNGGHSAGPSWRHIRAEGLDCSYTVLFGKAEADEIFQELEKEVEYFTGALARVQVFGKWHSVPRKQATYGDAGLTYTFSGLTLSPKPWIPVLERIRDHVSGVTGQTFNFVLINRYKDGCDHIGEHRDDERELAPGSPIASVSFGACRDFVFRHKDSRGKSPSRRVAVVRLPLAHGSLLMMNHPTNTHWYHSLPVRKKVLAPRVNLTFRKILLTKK

hABH2 (human) [2] = biological target: T1, hABH2 (human); assay: co-IP with anti-PCNA magnetic beads from cells expressing only endogenous proteins, anti-hABH2 western blot
[3] = biological target: T2, proliferating cell nuclear antigen (PCNA) (UniProt P12004 1-261); assay: in vivo cross-linking, IP with anti-FLAG affinity gel, western blot with anti-PCNA or anti-FLAG
T2 construct: Used both for endogenous PCNA of HeLa cell extracts (co-IP, cross-linking) and for the untagged 'PCNA' used as probe in the dot blot; also called endogenous PCNA

ECFP-PCNA = ECFP-PCNA (UniProt P12004); assay: FRET (sensitised emission) in live HeLa cells
[4] = biological target: T2, proliferating cell nuclear antigen …; assay: co-IP with anti-GFP antibodies from stably expressing cells, anti-PCNA western blot
Method: An in-house affinity purified rabbit polyclonal antibody raised against GFP protein, which also recognises EYFP and ECFP proteins, was covalently linked to protein-A paramagnetic beads (Dynal®) according to procedure from New England Biolabs® Inc (from now on called α-GFP beads). Each fraction was incubated with α-GFP beads (10 μl) during constant rotation at 4° C. over night (IP). After IP, the beads were washed 4 times with 200 μl 10 mM Tris-HCl, 50 mM KCl (pH 7.5), with 5 min incubation on ice in between. The beads were then resuspended in NuPAGE ® (Invitrogen) loading buffer and 1 mM DTT, heated, and separated on 10% or 4-12% Bis-Tris-HCl (NuPAGE®) gels and transferred to PVDF membranes (Imrnobilon®, Millipore). The membranes were blocked for 1 h in 5% low fat dry milk in PBST (PBS with 0.1% Tween® 20). The primary antibodies, α-PCNA (PC10, Santa Cruz biotechnology Inc.) and α-GFP were diluted in 1% dry milk in PBST and incubated for 1 h, followed by 1 h incubation with secondary antibodies, Polyclonal Rabbit Anti-mouse IgG/HRP and Polyclonal Swine Anti-rabbit IgG/HRP, respectively (DakoCytomation, Denmark). The membranes were treated with chemiluminescence reagent (SuperSignal® West Femto Maximum, PIERCE), and the proteins visualised in Kodak Image Station 2000R. […]

[5] = biological target: T2, proliferating cell nuclear antigen …; assay: dot blot: peptide spots probed with 1 ug/ml PCNA, detected with anti-PCNA PC10

binding (hABH2 (human) [1]): binds
Molecule: EYFP-PCNA (from UniProt P12004 1-261)

binding (hABH2 (human) [2]): binds
Molecule: proliferating cell nuclear antigen (PCNA) (from UniProt P12004 1-261)

binding [3]: binds
Molecule: MDRFLVK (peptide, human, UniProt Q6NS38 1-7, looked up, not shown: large carriers; small tags and cut ends) [hABH21-7-EYFP 3× FLAG]

binding [4]: binds
Molecule: MDRFLVKGAQ (peptide, human, UniProt Q6NS38 1-10, looked up, not shown: large carriers) [hABH21-10-EYFP]
binding (ECFP-PCNA): binds

binding [5]: binds
Molecule: MDRYLVKGAQ (peptide, UniProt Q6NS38 1-10, looked up) [hABH2 N-terminal peptide with Phe4 replaced by Tyr (dot blot)]

binding [5]: binds
Molecule: MDRFLVKGAQ (peptide, UniProt Q6NS38 1-10, looked up) [hABH2 N-terminal peptide (dot blot)]

binding [4]: binds
B1: hABH21-261-EYFP (protein, human, UniProt Q6NS38 1-261, looked up, not shown: large carriers)
chain: MDRFLVKGAQGGLLRKQEEQEPTGEEPAVLGGDKESTRKRPRREAPGNGGHSAGPSWRHIRAEGLDCSYTVLFGKAEADEIFQELEKEVEYFTGALARVQVFGKWHSVPRKQATYGDAGLTYTFSGLTLSPKPWIPVLERIRDHVSGVTGQTFNFVLINRYKDGCDHIGEHRDDERELAPGSPIASVSFGACRDFVFRHKDSRGKSPSRRVAVVRLPLAHGSLLMMNHPTNTHWYHSLPVRKKVLAPRVNLTFRKILLTKK
binding (ECFP-PCNA): binds
